PubChem BioAssay AID686937, Drosophila RNAi Screening Center, 2013

- Purpose: 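Knock-downs that reduce output of a secreted reporter enzyme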 (primary screen)
- Cell system: Drosophila S2 cells expressing secreted horseradish peroxidase
- Knock-down reagent: long dsRNA against Drosophila genes
- Time to read-out: about 5.5 days (5 days dsRNA, then 12 h reporter induction)
- Conditions: reporter expression induced after 5 days of dsRNA, read 12 h later; inducer not stated
- Read-out: 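After 5 days of dsRNA and 12 h of reporter induction, medium peroxidase read by chemiluminescence and scored as per-plate z-score; higher values mean more reporter released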
- Reading the numbers: z-score: higher = more reporter secreted into medium
The deposit covers about 23,000 reagents; shown is an unselected part of those that have a named target and a result. 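Reduced-secretion tags in replicate 1 do not always agree with the z-scores; no criterion for assigning the tags was given.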 A plus sign joins genes that one reagent is predicted to hit. Not all columns of the deposit are shown. Not stated in the record: the amount of reagent.

CG9084 [DRSC07335] showed z-score, replicate 1 = -0.05.
Silencing of Muc18B [DRSC20064] came out at: z-score, replicate 1 = 0.18.
After knock-down of Muc18B [DRSC21644], the record shows z-score, replicate 1 = -0.14.
Against RanGAP [DRSC22003] the deposit lists z-score, replicate 1 = 0.38.
For CG3649 [DRSC04400], the values are z-score, replicate 1 = 0.3.
Knock-down of CG14073 [DRSC10078] gave: z-score, replicate 1 = 0.07.
Depletion of CG8379 [DRSC16414] resulted in: z-score, replicate 1 = 0.35.
Knock-down of CG5828 [DRSC02900] gave: z-score, replicate 1 = 0.81.
Depletion of CG14960 [DRSC08419] resulted in: z-score, replicate 1 = 0.33.
ND-B14.7 [DRSC04544] gave z-score, replicate 1 = -0.2.
With knock-down of CG32551 [DRSC19259], the screen gave z-score, replicate 1 = -0.29.
After knock-down of CG11608 [DRSC14334] the results were z-score, replicate 1 = 0.22.
With knock-down of Obp83b [DRSC12360], the screen gave z-score, replicate 1 = 0.39.
After knock-down of TTLL5 [DRSC14181], the screen gave z-score, replicate 1 = -0.01.
Silencing of Rab9Db + Rab9D + Rab9E [DRSC17656] gave: z-score, replicate 1 = 0.18.
For CG31663 [DRSC00078], the values are z-score, replicate 1 = 0.61.
Silencing of CG31663 [DRSC00389] resulted in: z-score, replicate 1 = -0.09.
For CG31663 [DRSC00390], the entry reads z-score, replicate 1 = 0.7.
Depletion of CG31663 [DRSC00393] came out at: z-score, replicate 1 = 0.19.
Knock-down of wuc [DRSC06152] resulted in: z-score, replicate 1 = 0.12.
For Obp57e [DRSC05891], the entry reads z-score, replicate 1 = 1.05.
Against Fbp2 [DRSC03327], the entry reads z-score, replicate 1 = 0.41.
After knock-down of Tsen54 [DRSC10527], the record shows z-score, replicate 1 = 0.38.
Knock-down of Clbn [DRSC14404] resulted in: z-score, replicate 1 = 0.37.
With knock-down of CG7737 [DRSC07033] the results were z-score, replicate 1 = 0.41.
With knock-down of CG13465 [DRSC10011], the screen gave z-score, replicate 1 = 0.41.
For CG3308 [DRSC15474], the values are z-score, replicate 1 = 0.32.
Knock-down of Vps4 [DRSC19338] gave: z-score, replicate 1 = -3.03.
After knock-down of Gr98c [DRSC22212], the screen gave z-score, replicate 1 = -1.12.

Part of the list above, set out differently:
{"gene": "CG31663", "dsRNA": "DRSC00389", "z-score, replicate 1": -0.09}
{"gene": "CG31663", "dsRNA": "DRSC00390", "z-score, replicate 1": 0.7}
{"gene": "CG31663", "dsRNA": "DRSC00393", "z-score, replicate 1": 0.19}

The list goes on:
Dnaaf3 [DRSC06684] showed z-score, replicate 1 = 0.24.
With knock-down of Mhc [DRSC03367], the screen gave z-score, replicate 1 = -0.07.
After knock-down of HisCl1 [DRSC14945] the results were z-score, replicate 1 = 0.08.
With knock-down of Spag1 [DRSC15331], the screen gave z-score, replicate 1 = 0.25.
Silencing of betaTub97EF [DRSC15666] gave: z-score, replicate 1 = -1.6.
betaTub97EF [DRSC15667] gave z-score, replicate 1 = 0.11.
Depletion of betaTub97EF [DRSC15668] came out at: z-score, replicate 1 = 0.13.
Depletion of l(2)gd1 [DRSC02773] came out at: z-score, replicate 1 = 0.
Silencing of CG6345 [DRSC16024] came out at: z-score, replicate 1 = 0.33.
After knock-down of CG12118 [DRSC17813] the results were z-score, replicate 1 = 0.36.
pHCl-1 [DRSC09401] gave z-score, replicate 1 = 0.12.
pHCl-1 [DRSC09888] showed z-score, replicate 1 = 0.22.
pHCl-1 [DRSC09991] scored z-score, replicate 1 = 0.46.
Depletion of pHCl-1 [DRSC10589] gave: z-score, replicate 1 = 0.47.
bru3 [DRSC09280] showed z-score, replicate 1 = 0.4.
Silencing of bru3 [DRSC09291] gave: z-score, replicate 1 = -0.06.
With knock-down of bru3 [DRSC09292], the record shows z-score, replicate 1 = 0.03.
For bru3 [DRSC09687] the deposit lists z-score, replicate 1 = 0.25.
Against bru3 [DRSC09887] the deposit lists z-score, replicate 1 = 0.02.
bru3 [DRSC22732] showed z-score, replicate 1 = 0.31.
With knock-down of fwe [DRSC09398], the screen gave z-score, replicate 1 = 0.48.
Depletion of fwe [DRSC10594] resulted in: z-score, replicate 1 = 0.34.
With knock-down of fwe [DRSC21400], the screen gave z-score, replicate 1 = 1.38.
